These results are taken from the supplement of paper PMC7666118.

The chains behind the UniProt entries cited, without tags or fusion partners. Where a name states a change or a piece, a line headed by the entry shows the natural chain unless it says otherwise.
UniProt Q9UIS9: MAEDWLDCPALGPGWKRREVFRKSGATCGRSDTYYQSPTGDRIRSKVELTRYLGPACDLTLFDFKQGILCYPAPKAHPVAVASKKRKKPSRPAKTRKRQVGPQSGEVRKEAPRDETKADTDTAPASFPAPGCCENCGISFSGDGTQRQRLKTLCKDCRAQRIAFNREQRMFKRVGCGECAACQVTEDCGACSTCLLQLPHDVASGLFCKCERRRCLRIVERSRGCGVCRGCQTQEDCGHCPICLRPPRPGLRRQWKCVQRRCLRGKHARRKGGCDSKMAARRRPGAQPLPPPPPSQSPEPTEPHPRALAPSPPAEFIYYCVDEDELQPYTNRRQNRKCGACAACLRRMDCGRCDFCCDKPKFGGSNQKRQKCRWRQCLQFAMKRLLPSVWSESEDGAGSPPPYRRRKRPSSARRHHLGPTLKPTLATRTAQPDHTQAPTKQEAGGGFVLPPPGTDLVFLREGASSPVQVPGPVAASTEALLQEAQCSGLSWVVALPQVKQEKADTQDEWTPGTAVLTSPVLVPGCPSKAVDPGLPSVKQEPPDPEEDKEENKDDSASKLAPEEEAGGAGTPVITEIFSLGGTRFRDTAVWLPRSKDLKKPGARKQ
UniProt Q8N9N7: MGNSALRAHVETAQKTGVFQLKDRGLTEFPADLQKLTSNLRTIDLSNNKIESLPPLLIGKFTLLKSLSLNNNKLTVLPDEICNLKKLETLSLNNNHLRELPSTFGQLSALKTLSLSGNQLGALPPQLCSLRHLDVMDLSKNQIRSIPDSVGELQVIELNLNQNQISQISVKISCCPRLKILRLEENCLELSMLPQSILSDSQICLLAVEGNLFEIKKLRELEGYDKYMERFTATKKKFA
UniProt P40926: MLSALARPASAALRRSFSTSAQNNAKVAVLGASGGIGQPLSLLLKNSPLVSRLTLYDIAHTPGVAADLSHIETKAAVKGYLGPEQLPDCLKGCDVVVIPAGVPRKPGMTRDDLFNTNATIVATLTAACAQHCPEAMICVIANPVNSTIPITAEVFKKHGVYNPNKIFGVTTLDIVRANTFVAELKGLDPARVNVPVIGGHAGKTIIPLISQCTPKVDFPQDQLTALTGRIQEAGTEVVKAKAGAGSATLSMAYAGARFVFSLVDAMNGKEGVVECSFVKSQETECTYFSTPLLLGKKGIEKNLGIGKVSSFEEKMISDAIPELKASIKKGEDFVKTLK
UniProt P53671: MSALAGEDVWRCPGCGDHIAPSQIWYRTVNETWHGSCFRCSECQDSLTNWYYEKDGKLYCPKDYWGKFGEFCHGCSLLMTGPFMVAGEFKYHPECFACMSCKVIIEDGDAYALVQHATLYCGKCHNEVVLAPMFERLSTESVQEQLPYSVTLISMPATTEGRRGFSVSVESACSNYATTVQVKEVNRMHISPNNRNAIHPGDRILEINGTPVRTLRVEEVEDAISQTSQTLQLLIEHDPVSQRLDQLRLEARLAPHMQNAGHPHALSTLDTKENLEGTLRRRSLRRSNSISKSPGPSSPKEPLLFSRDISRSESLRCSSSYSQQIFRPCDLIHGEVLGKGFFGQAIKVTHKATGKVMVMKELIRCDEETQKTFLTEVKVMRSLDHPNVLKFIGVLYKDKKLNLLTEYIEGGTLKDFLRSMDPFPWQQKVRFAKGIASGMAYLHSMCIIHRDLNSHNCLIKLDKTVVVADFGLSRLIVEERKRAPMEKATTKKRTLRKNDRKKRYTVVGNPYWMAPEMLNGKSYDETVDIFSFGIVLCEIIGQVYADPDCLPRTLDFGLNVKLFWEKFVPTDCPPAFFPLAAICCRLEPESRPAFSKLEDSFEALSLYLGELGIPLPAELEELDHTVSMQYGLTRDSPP
UniProt P07948: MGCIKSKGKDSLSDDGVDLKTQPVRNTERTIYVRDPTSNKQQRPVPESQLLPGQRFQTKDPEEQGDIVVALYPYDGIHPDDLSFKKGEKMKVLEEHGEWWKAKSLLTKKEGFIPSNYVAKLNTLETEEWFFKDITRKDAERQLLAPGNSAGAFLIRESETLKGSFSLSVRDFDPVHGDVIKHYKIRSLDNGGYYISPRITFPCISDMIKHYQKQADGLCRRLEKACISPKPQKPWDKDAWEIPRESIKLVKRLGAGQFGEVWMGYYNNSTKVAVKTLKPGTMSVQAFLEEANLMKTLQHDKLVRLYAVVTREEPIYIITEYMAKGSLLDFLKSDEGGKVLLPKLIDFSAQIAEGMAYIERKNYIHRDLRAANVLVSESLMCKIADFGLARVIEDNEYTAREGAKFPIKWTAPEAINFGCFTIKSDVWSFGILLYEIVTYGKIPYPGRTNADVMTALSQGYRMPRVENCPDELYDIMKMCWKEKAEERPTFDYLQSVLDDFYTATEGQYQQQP
UniProt Q8IV50: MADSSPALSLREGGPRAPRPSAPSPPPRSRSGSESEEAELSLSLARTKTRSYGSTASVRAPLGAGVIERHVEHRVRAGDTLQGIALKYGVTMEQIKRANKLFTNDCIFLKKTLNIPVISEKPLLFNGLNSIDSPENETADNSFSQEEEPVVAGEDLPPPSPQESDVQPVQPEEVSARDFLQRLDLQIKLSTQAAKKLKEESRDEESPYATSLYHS
UniProt Q96G23: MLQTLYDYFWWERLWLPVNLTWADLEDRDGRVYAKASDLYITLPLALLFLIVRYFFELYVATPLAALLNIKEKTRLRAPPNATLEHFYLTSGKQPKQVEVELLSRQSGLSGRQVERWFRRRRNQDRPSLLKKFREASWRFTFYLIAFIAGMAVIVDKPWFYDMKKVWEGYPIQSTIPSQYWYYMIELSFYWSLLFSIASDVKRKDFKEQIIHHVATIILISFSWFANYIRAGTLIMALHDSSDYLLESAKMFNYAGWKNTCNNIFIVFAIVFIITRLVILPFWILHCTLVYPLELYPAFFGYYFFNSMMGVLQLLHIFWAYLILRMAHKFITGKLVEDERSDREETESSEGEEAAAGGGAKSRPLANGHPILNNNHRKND
UniProt Q9BT23: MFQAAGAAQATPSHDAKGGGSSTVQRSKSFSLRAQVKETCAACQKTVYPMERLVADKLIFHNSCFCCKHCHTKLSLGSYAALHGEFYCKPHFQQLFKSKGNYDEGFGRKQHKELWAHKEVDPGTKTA
UniProt Q9Y6D9: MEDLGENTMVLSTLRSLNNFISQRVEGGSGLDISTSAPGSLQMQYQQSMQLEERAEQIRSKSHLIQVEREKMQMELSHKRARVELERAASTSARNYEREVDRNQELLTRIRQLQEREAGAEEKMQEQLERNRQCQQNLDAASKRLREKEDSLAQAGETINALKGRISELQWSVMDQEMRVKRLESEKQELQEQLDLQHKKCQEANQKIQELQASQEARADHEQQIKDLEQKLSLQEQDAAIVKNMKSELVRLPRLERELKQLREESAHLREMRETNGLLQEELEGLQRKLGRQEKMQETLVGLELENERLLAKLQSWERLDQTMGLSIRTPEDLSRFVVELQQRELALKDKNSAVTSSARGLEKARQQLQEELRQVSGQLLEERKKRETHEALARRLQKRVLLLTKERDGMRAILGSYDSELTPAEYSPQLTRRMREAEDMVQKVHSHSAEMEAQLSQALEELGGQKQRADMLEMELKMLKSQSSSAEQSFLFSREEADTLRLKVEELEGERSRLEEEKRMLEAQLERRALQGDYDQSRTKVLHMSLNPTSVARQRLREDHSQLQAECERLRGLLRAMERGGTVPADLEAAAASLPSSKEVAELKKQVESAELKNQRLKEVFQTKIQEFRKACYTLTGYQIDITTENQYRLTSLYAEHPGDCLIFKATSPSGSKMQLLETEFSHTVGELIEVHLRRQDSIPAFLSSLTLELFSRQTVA
UniProt Q86V48: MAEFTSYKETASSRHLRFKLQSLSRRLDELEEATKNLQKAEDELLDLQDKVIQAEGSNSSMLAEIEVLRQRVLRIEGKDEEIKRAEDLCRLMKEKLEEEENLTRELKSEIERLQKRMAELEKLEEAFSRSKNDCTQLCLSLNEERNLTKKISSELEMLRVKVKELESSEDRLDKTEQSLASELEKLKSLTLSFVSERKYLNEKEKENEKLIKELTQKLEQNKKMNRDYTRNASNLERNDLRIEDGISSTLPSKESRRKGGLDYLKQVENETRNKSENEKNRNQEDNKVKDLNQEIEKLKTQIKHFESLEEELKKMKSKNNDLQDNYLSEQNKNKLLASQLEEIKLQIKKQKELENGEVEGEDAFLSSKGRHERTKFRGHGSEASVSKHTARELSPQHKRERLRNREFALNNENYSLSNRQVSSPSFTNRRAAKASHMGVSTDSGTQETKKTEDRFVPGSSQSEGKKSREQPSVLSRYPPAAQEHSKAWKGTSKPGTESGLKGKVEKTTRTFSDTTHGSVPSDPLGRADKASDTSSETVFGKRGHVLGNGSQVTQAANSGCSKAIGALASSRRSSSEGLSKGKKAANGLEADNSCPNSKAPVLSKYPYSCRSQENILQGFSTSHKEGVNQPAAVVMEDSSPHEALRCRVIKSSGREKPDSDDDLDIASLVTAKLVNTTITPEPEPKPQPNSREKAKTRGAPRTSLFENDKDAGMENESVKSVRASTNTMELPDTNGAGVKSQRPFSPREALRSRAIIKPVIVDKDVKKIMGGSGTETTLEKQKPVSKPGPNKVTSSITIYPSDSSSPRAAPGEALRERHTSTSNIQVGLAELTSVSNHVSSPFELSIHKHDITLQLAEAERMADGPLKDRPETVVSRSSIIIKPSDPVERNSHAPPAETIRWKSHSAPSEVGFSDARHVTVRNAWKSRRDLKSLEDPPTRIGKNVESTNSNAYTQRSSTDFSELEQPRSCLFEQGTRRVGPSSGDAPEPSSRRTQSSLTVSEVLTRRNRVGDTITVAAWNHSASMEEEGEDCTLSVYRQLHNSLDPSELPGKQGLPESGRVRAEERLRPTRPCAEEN
UniProt Q86UP2: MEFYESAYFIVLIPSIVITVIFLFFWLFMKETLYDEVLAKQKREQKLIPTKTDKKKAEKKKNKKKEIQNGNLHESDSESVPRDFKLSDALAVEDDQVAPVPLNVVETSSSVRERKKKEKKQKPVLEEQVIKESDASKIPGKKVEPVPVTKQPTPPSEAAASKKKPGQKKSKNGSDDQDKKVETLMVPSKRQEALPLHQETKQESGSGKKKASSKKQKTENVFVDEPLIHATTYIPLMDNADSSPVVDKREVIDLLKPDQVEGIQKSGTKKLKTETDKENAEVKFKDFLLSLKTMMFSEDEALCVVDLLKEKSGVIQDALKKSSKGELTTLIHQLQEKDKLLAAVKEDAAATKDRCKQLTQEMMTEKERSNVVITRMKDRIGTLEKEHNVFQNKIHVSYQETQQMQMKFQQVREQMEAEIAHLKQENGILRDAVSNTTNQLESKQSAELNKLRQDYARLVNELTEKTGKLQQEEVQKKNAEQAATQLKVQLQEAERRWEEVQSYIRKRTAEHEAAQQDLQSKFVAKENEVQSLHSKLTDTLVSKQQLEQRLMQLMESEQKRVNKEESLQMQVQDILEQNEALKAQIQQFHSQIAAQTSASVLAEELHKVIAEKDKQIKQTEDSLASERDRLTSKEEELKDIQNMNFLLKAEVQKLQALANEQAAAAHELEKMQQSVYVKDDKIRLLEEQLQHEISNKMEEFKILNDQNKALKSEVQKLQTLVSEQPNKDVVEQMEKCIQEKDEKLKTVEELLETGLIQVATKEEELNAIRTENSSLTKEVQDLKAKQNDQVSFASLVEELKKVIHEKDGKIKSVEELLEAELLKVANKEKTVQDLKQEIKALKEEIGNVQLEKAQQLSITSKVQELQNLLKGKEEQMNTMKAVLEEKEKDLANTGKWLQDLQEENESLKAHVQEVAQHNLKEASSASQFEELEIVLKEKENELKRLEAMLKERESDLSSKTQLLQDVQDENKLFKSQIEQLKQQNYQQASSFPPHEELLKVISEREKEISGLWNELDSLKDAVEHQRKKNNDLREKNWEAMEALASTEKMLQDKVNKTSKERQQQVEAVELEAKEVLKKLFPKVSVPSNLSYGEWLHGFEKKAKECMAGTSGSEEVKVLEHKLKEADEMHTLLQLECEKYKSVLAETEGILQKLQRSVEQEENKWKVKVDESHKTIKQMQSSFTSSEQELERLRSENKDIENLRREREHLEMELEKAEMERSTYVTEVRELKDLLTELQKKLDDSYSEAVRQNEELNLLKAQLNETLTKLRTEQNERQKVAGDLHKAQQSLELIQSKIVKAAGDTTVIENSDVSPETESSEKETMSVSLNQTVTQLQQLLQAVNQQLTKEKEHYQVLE

This is one part of the list.

Compound in the assay: COc1ccc(Cn2ccc3cc(C)c(C(=O)NO)cc32)cc1
Description: dose-dependent thermal stabilisation call (2D-TPP, DLPTP, 10% FDR) (binary (1 = stabilised)); higher = stabilised by the compound. The conditions noted are these: system: HL-60 intact cells; concentration range 0.04-10 µM. The protocol:
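2D thermal proteome profiling in intact HL-60 cells treated with BRD-3811 (0, 0.04, 0.29, 2, 10 uM) for 90 min at 37 C, then heated 3 min at one of 12 temperatures (42-63.9 C). Soluble protein was quantified by TMT10 MS. The value is the DLPTP call of the paper: dose-dependent thermal stabilisation over all temperatures at 10% FDR (F-test of a dose-response against a flat model); one experiment, one call per tested protein.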
With LOC100130932, the “dose-dependent thermal stabilisation call” value was inactive: 0.

For the target MBD1 (UniProt Q9UIS9), the “dose-dependent thermal stabilisation call” value is inactive: 0.

On to LDHA (UniProt P00338), for which the “dose-dependent thermal stabilisation call” value was inactive: 0.

As to MANBA (UniProt O00462), the “dose-dependent thermal stabilisation call” value was inactive: 0.

With LRRC57 (UniProt Q8N9N7), the “dose-dependent thermal stabilisation call” value is inactive: 0.

In the case of MAP4K2 (UniProt Q12851), the “dose-dependent thermal stabilisation call” value was inactive: 0.

Take MCM4 (UniProt P33991): the “dose-dependent thermal stabilisation call” value is inactive: 0.

In the case of LRCH3 (UniProt Q96II8), the “dose-dependent thermal stabilisation call” value is inactive: 0.

With LONP1 (UniProt P36776), the “dose-dependent thermal stabilisation call” value is inactive: 0.

As for MDH2 (UniProt P40926), the “dose-dependent thermal stabilisation call” value was active: 1.

Consider LNPEP (UniProt Q9UIQ6), for which the “dose-dependent thermal stabilisation call” value was inactive: 0.

On to LIG4 (UniProt P49917), for which the “dose-dependent thermal stabilisation call” value was inactive: 0.

As to LIMK2 (UniProt P53671), the “dose-dependent thermal stabilisation call” value was inactive: 0.

With LYN (UniProt P07948), the “dose-dependent thermal stabilisation call” value is inactive: 0.

Take LYSMD2 (UniProt Q8IV50): the “dose-dependent thermal stabilisation call” value was inactive: 0.

Take LASS2 (UniProt Q96G23): the “dose-dependent thermal stabilisation call” value was inactive: 0.

As for LYAR (UniProt Q9NX58), the “dose-dependent thermal stabilisation call” value is inactive: 0.

LIMD2 (UniProt Q9BT23): the “dose-dependent thermal stabilisation call” value is inactive: 0.

For MAD1L1 (UniProt Q9Y6D9), the “dose-dependent thermal stabilisation call” value was inactive: 0.

As to MAPK1 (UniProt P28482), the “dose-dependent thermal stabilisation call” value is active: 1.

As to MAEA (UniProt Q7L5Y9), the “dose-dependent thermal stabilisation call” value is inactive: 0.

Regarding LMAN1 (UniProt P49257), the “dose-dependent thermal stabilisation call” value was inactive: 0.

In the case of LUZP1 (UniProt Q86V48), the “dose-dependent thermal stabilisation call” value is inactive: 0.

For the target LOC153364, the “dose-dependent thermal stabilisation call” value is inactive: 0.

With LRRC40 (UniProt Q9H9A6), the “dose-dependent thermal stabilisation call” value was inactive: 0.

Regarding MARVELD1 (UniProt Q9BSK0), the “dose-dependent thermal stabilisation call” value is inactive: 0.

In the case of KTN1 (UniProt Q86UP2), the “dose-dependent thermal stabilisation call” value was inactive: 0.

As for LPCAT2 (UniProt Q7L5N7), the “dose-dependent thermal stabilisation call” value was inactive: 0.
